Literature values in patent US6555692B1, “Preparation and use of bifunctional molecules having DNA sequence binding specificity” (California Institute of Technology, priority 1996, dated 2003).
For at least one compound, name, drawing or mass did not settle the structure.

Test system: DNA
Details: cited from earlier work

## CC[n+]1c(-c2ccccc2)c2cc(N)ccc2c2ccc(N)cc21 [Ethidium bromide]
  Ka for DNA binding: approximately 10^5 M
  unwinding of the DNA helix: 26 °
